The source of these data is patent publication US6767890B1, “Peptides having anti-cancer and anti-inflammatory activity” (priority 1998, dated 2004).

The data set concerns ovalbumin-induced bronchoconstriction. The experiment in a line: Pulmonary, Histamine H3 (ovalbumin-induced bronchoconstriction). The format is in vivo, guinea pig. Conditions: N=3, Peptide PO 10 mg/kg, R-α-methylhistamine IV 30 mg/kg. Here is the method:
For in vivo assay, distilled water and saline was used as vehicle in oral and intraperitoneal administration, respectively. Dosing volume was 20 ml/kg for mice or 10 ml/kg for rats.
A group of Duncan Hartley derived male or female guinea pigs weighing 250±50 gms were anesthetized with pentobarbital sodium (50 mg/kg IP plus an additional 15 mg/kg IP if required) and succinylcholine chloride (2 mg/animal IP) was subsequently administered to prevent spontaneous respiration. Body temperature was maintained at 37° to 38° C. The trachea was cannulated and the guinea pig ventilated with a Harvard rodent respirator in a closed system. Tracheal pressure (TP) was recorded through a side-arm of the cannula connected to a P23ID Statham transducer. Respiratory rate set at 50 strokes/minute with a stroke volume (approximately 1 ml/100 g) sufficient to produce a baseline tracheal pressure of 6 cm H2O. Mean arterial pressure was monitored from a cannulated carotid artery, and heart rate was obtained from chest electrodes arranged for lead II. The jugular vein was cannulated for IV vehicle or drug administration in a volume of 1 ml/kg. Guinea pigs were sensitized with IP injections of ovalbumin 0.5 μg+Al(OH)3 1 mg (0.5 ml/animal) on days 1, and boosted with same dosage of ovalbumin and Al(OH)3 vaccine on day 8; and the animals were ready to be challenged between days 19 and 23 to get a submaximal ovalbumin (50 μg/kg IV)-induced bronchoconstriction, reflected as an increase in tracheal pressure (cm H2O). […]. Test substances were administered PO (10 mg/kg) at 60 minutes before ovalbumin (50 μg/kg IV) challenge in 3 guinea pigs. Tracheal pressure, blood pressure and heart rate were measured immediately before and after ovalbumin challenge.

For the molecule `C[C@@H](N)Cc1c[nH]cn1` [R (α)-Methylhistamine, R-α-Methyl histamine], for the setting “after ovalbumin challenge”, the “Blood Pressure Post-challenge” value is 34.0 ± 4.2 mmHg and the “Heart Rate Post-challenge” value came to 216 ± 0.0 beats/min. Moreover, where the note is “before ovalbumin challenge”, the “Blood Pressure Pre-challenge” value was determined as 55.3 ± 1.3 mmHg and the “Heart Rate Pre-challenge” value is on record as 232 ± 4.0 beats/min.
